# Primary screen of a compound library

From ChEMBL document CHEMBL3988442, “University of Dundee, Small-Polar-MMV Screening Library” (2021).

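Viability assay of Plasmodium falciparum sporozoites; the read-out is not stated. The concentration is filed as 10 mM, unlikely as a test dose, so the dose is not known. The record gives no direction; compounds that gave an IC50 in retests scored well above the rest, so higher reads as lower viability. Strong results were mostly tested again. Of about 34,000 compounds tested this way, about 280 (0.84%) reached 50% or more in at least one test.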

The filed quantity is “Percent Effect” (%). The controls that fix the scale are not given in the record; negative values are as filed. This is an unselected part of the compounds tested. Two or more numbers in one place are separate tests of the same structure; such repeats can differ widely.

compound	Percent Effect
O=C1OCCC1N1CCN(C(=O)Cc2ccccc2Cl)CC1 (stereo not given)	11.46%
Cc1ccc(C(CCNCCCN(C)C)C2CCOC(C)(C)C2)cc1.O=C(O)C(=O)O (stereo not given)	9.428% and 8.066%
CNC(=O)c1cc2c(nc1N(C)C)CCN(S(=O)(=O)C1CC1)CC2.O=C(O)C(F)(F)F	-0.7821%
COCCNC(=O)C(C)S(=O)(=O)c1ccc(OC)cc1 (stereo not given)	6.037%
CN(C)CCOCc1nnc2n1CCN(Cc1ccc(F)cc1)CC2.O=C(O)C(F)(F)F.O=C(O)C(F)(F)F	12.65%
CCc1nnsc1C(=O)N1CCN(CC(O)CC)CC1 (stereo not given)	-1.741%
CCOCC(O)CN1CCN(C(=O)c2ccccc2Cl)CC1 (stereo not given)	8.904%
CC(C)NC(=O)N1CCCC2(CCN(c3ccsc3)C2=O)C1 (stereo not given)	7.443%
O=C(O)CC(NC(=O)c1ccccc1OC(F)F)c1cccs1 (stereo not given)	0.2692%
COCC(=O)N1CCCC2(CCN(c3ccsc3)C2=O)C1 (stereo not given)	-6.113%
O=C(O)C(F)(F)F.c1nc2c(c(C3CC3)n1)CCN(Cc1ccc3c(c1)OCO3)CC2	-11.69%
O=C(CCNS(=O)(=O)c1ccc(Cl)cc1)NCc1ccoc1	-2.451%
CC(C)OCCCN(Cc1cnn(C)c1)Cc1ccccn1.O=C(O)CC(O)(CC(=O)O)C(=O)O	10.46%
CNC(=O)C1CCN(C(=O)c2coc(COc3ccc(OC)cc3)n2)C1 (stereo not given)	-7.982%
COCCCN(Cc1ccncc1)C(=O)CSc1ccc(F)cc1	-0.3552%
CCn1c(CC2CCN(S(=O)(=O)c3cccs3)CC2)nn(C)c1=O	10.31%
O=C(CCc1ccsc1)N1CCC(Nc2cccnn2)CC1	-5.49%
Cc1cc(-c2cc(F)ccc2C(=O)O)nc(C2CCCCN2C(C)C)n1 (stereo not given)	4.863%
COc1ccccc1C(=O)N1CCOCC1c1c(C)n[nH]c1C (stereo not given)	8.694%
CC(C)c1nnc(NC(=O)NCc2ccnc(N(C)C)c2)s1	-3.341%
COCCO[C@H]1CCN(Cc2cccs2)[C@H]1Cc1cccnc1.O=C(O)C(F)(F)F.O=C(O)C(F)(F)F	6.459%
Cc1ccc(C(=O)N2CC3(CCCCC3)c3cc(C(=O)O)ccc32)cn1.O=C(O)C(F)(F)F	-6.477% and -7.238%
COc1cnc(C2(O)CCN(C(=O)c3ccco3)CC2)c(OC)n1	-0.6695%
O=C(C1=CC2(CCNCC2)c2ccccc21)N1CCCC1	0.7576%
Cc1cc(N(C)C)nc(C2(C)CCCN2CC(N)=O)n1 (stereo not given)	18.06%
Cc1nn(C)cc1CN1CCCn2nc(CNC(=O)C3CCC3)cc2C1	-18.16%
CCN(Cc1ccc2c(c1)OCO2)Cc1nc2c(cnn2C)c(=O)[nH]1	4.252%
COC1COC2(CCN(CC3CCOCC3)CC2)C1.O=C(O)C(F)(F)F (stereo not given)	2.7%
COc1cccc(CCC(=O)N2CCCCC2Cn2cccn2)c1 (stereo not given)	-1.618%
CCN(CC)C(=O)CCNC(=O)Cc1nc(-c2ccco2)oc1C	4.292%
c1nc2n(c1CN1CCCC1)CCN(C1CCOCC1)CC2	-10.82%
C[C@@H]1CN(C(=O)c2nc3ccc(Cl)cn3c2-c2ncc[nH]2)C[C@H](C)O1	1.007%
Cc1cnn(CCNCc2ccccc2Oc2cccnc2)c1	1.193%
COc1cccc(N2CCN(C(=O)C(O)c3ccccc3Cl)CC2=O)c1 (stereo not given)	-12.62% and 2.237% and 5.218%
CNC(=O)COC(=O)c1ccn(-c2ccc(Cl)c(Cl)c2)n1	6.834%
CCc1ncncc1C(=O)NC1CCc2nc(C)cn2C1 (stereo not given)	-7.585%
CCc1noc(CN(CC)Cc2cc3ccc(F)cc3[nH]c2=O)n1	2.615%
CN1C[C@@H](O)[C@]2(CCN(C(=O)OCc3ccccc3)C2)S1(=O)=O	-6.029%
O=C1CCC2(CCCN(C(=O)Cc3ccccn3)C2)N1 (stereo not given)	11.8%
CNCc1ccc(OCc2ccc3c(c2)OCCO3)cc1.Cl	-5.818% and 32.99%
COCC1COCCC12CCN(S(=O)(=O)c1ccccc1)CC2 (stereo not given)	-325.3%
Cl.O=C1N(Cc2ccc(Cl)cc2)CCC12CCCNC2 (stereo not given)	4.116%
CCNC(=O)N1CCc2ccc(NC(=O)NCc3ccsc3)cc21	14.03% and 7.858%
CN(C)S(=O)(=O)c1ccc(CN2CCCC2c2ccc[nH]2)o1 (stereo not given)	-0.7335%
O=C(Cc1cccnc1)N1CCC(c2nnc(-c3ccccn3)o2)CC1	3.673%
Cc1ccc([C@@H]2CN(S(=O)(=O)C(C)C)C[C@H]2N(C)C)cc1	-14.76%
CC(C)n1ccnc1C1CCN(C(=O)c2ccc(SCCO)cc2)CC1	-10.09%
Cn1cc(C2CCCN2Cc2cscn2)cn1 (stereo not given)	-7.263%
O=C(NCCCn1cccn1)N1CCCC1c1ccncc1 (stereo not given)	8.155%
O=C(Cc1ccc(O)cc1)N1CCCC(O)(CN2CCOCC2)CC1 (stereo not given)	-6.182%
CN(Cc1nnnn1C1CC1)CC1COc2ccccc2O1 (stereo not given)	-4.239%
CNC(=O)[C@@H]1CN(C(=O)C(C)C)C[C@H]1c1ccnc(N2CCCC2)n1.Cl	7.926%
O=C1CC(c2cccc(O)c2)c2c(c(C(=O)O)cn2-c2ccccc2)N1 (stereo not given)	1.974%
CC(C)[C@H](N)c1nnc(SCC(=O)Nc2ccc(Br)cc2)o1.Cl	3.906%
Cc1cc(NCCNc2cccnc2)nc(-c2ccccc2O)n1	-17.94% and -22.19% and -15.83%
Cn1nccc1-c1cncc(C2CCCN(S(C)(=O)=O)C2)n1 (stereo not given)	7.7%
Cc1c(CN2CCCCC2)c(O)n(CCCO)c(=O)c1C#N	3.349%
CCc1nc(CC(=O)N2CCn3c(nnc3C(C)C)C2)cs1	8.904%